Experimental data: US20140220626A1
Results are given in words; binding and its absence hold for the method and conditions named. Some binding calls cover weakened binding; strength is not graded here.

What was measured:
[1] = target: T1, biotin-CRP (C-reactive protein, antigen) (UniProt P02741); test: ELISA: unpurified denatured scFv (solubilized insoluble fraction, diluted 10 or 100 fold) immobilized on hydrophilic polystyrene plate, biotin-CRP 1 to 5000 ng/ml, HRP-streptavidin, A405
T1 sequence (biotin label (site not stated), looked up): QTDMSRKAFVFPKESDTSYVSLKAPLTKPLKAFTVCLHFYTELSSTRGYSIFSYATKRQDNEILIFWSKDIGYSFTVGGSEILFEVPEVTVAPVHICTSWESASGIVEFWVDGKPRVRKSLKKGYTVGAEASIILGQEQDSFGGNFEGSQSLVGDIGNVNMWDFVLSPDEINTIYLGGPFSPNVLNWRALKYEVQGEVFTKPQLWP

[2] = target: T1, biotin-CRP (C-reactive protein, antigen); test: ELISA: denatured scFv (0.032, 0.32 or 3.2 ug per well) immobilized and refolded on hydrophilic polystyrene plate, biotin-CRP 1 to 5000 ng/ml, HRP-streptavidin, A405
[3] = target: T1, biotin-CRP (C-reactive protein, antigen); test: ELISA: refolded scFv immobilized on hydrophilic polystyrene plate, biotin-CRP 1 to 5000 ng/ml, HRP-streptavidin, A405
[4] = target: T1, biotin-CRP (C-reactive protein, antigen); test: ELISA: denatured scFv (4M urea) immobilized and refolded on hydrophilic polystyrene plate, biotin-CRP 1 to 5000 ng/ml, HRP-streptavidin, A405
[5] = target: T1, biotin-CRP (C-reactive protein, antigen); test: ELISA: denatured scFv (10 ug/ml, 4M urea, 1% Tween 20) immobilized and refolded on hydrophilic polystyrene plate, biotin-CRP 1 to 5000 ng/ml, HRP-streptavidin, A405

Binder	binding [1]	binding [2]	binding [3]	binding [4]	binding [5]
peptide 21-1 of the invention (scFv) scFv: MASQVQLQQSGAELVKPGASVKLSCTASGFNIKDYYMHWVKQRTEQGLEWIGRIDPEDGETKYAPKFQGKATITADTSSNTAYLQLSSLTSEDTAVYYCARGYYGSEAMDYWGQGTSLTVSSGGGGSGGGGSGGGGSTGSIVMTQSHKFMSTSVGDRVSITCKASQDVNTAVAWYQQKPGQSPKLLIYWASTRHTGVPDRFTGSGFGTDYTLTISSVQAEDLALYYCQQHYSTPWTFGGGTKLEIKRADAAPTVAAARIIIRRIRRIEHHHHHH	binds	binds	binds	binds	–
peptide 22-1 of the invention (scFv) scFv: MASQVQLQQSGAELVKPGASVKLSCTASGFNIKDYYMHWVKQRTEQGLEWIGRIDPEDGETKYAPKFQGKATITADTSSNTAYLQLSSLTSEDTAVYYCARGYYGSEAMDYWGQGTSLTVSSRIIIRRIRRGGGGSGGGGSGGGGSTGSIVMTQSHKFMSTSVGDRVSITCKASQDVNTAVAWYQQKPGQSPKLLIYWASTRHTGVPDRFTGSGFGTDYTLTISSVQAEDLALYYCQQHYSTPWTFGGGTKLEIKRADAAPTVAAALEHHHHHH	–	–	–	binds	–
peptide 23-1 of the invention (scFv) scFv: MASQVQLQQSGAELVKPGASVKLSCTASGFNIKDYYMHWVKQRTEQGLEWIGRIDPEDGETKYAPKFQGKATITADTSSNTAYLQLSSLTSEDTAVYYCARGYYGSEAMDYWGQGTSLTVSSRIIIRRIRRGGGGSGGGGSGGGGSTGSIVMTQSHKFMSTSVGDRVSITCKASQDVNTAVAWYQQKPGQSPKLLIYWASTRHTGVPDRFTGSGFGTDYTLTISSVQAEDLALYYCQQHYSTPWTFGGGTKLEIKRADAAPTVAAARIIIRRIRRIEHHHHHH	–	–	–	binds	–
peptide 21-2 of the invention (scFv) scFv: MASEVKLMESGGGLVQPGGSLKLSCAASGFTFSSYGMSWVRQTPDKRLELVATINSNGGSTYYPDSVKGRFTISRDNAKNTLYLQMSSLKSEDTAMYYCARGGRLRLYFDVWGAGTSLTVSSGGGGSGGGGSGGGGSTGDIVMSQSPASLAVSLGQRATISCRASQSVSTSSYSYMHWYQQKPGQPPKLLIKYASNLESGVPARFSGSGSGTDFTLNIHPVEEEDTATYYCQHSWEIPYTFGGGTKLEIKRADAAPTVAAARIIIRRIRRIEHHHHHH	binds	–	binds	–	binds
peptide 22-2 of the invention (scFv) scFv: MASEVKLMESGGGLVQPGGSLKLSCAASGFTFSSYGMSWVRQTPDKRLELVATINSNGGSTYYPDSVKGRFTISRDNAKNTLYLQMSSLKSEDTAMYYCARGGRLRLYFDVWGAGTSLTVSSRIIIRRIRRGGGGSGGGGSGGGGSTGDIVMSQSPASLAVSLGQRATISCRASQSVSTSSYSYMHWYQQKPGQPPKLLIKYASNLESGVPARFSGSGSGTDFTLNIHPVEEEDTATYYCQHSWEIPYTFGGGTKLEIKRADAAPTVAAALEHHHHHH	–	–	–	–	binds
peptide 23-2 of the invention (scFv) scFv: MASEVKLMESGGGLVQPGGSLKLSCAASGFTFSSYGMSWVRQTPDKRLELVATINSNGGSTYYPDSVKGRFTISRDNAKNTLYLQMSSLKSEDTAMYYCARGGRLRLYFDVWGAGTSLTVSSRIIIRRIRRGGGGSGGGGSGGGGSTGDIVMSQSPASLAVSLGQRATISCRASQSVSTSSYSYMHWYQQKPGQPPKLLIKYASNLESGVPARFSGSGSGTDFTLNIHPVEEEDTATYYCQHSWEIPYTFGGGTKLEIKRADAAPTVAAARIIIRRIRRIEHHHHHH	–	–	–	–	binds
peptide 21-3 of the invention (scFv) scFv: MASQVQLQQSGAELVKPGASVKLSCTASGFNIKDYYMHWVKQRTEQGLEWIGRIDPEDGETKYAPKFQGKATITADTSSNTAYLQLSSLTSENTAVYYCARGYYGSEAMDYWGQGTSVTVSSGRGGSGGGGSGGGGSTGDILMTQSHKFMSTSVGDRVSITCKASQDVSTAVAWYQQKPGQSPKLLIYWASTRHTGVPDRFTGSGSGTDYTLTISSVQAEDLALYYCQQHYSTPWTFGGGTKLEIKRADAAPTVAAARIIIRRIRRIEHHHHHH	binds	–	binds	–	–
